Publication PMC12406788
No constants are given. Whether binding was seen depends on the method and setting.

The chains behind the UniProt entries cited, without tags or fusion partners.
UniProt Q5T9C2: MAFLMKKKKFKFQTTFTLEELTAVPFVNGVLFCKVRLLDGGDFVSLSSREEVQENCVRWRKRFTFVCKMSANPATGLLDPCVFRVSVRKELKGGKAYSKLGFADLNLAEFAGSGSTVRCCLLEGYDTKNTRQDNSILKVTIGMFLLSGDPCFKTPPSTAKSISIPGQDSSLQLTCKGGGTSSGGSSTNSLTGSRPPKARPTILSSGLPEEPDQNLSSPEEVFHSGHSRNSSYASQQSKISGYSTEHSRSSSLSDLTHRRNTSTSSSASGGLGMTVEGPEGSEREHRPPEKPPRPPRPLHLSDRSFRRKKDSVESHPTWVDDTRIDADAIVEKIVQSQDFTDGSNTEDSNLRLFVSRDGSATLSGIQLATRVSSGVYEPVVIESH

Molecular target: FAM102A-iRFP (human) (UniProt Q5T9C2)
Assay: recruitment (relocalisation) in cells seen by fluorescence microscopy; co-expression in COS-7 cells, where BLTP2 alone is not concentrated at ER-PM contacts; FAM102A or FAM102B at the PM brings tagged BLTP2 to PM patches (ER-PM contacts); spinning-disk confocal; also seen in U2OS, MDA-MB-231 and HeLaM cells

## BLTP2^Halo-△FBM (BLTP2 deletion construct lacking the FAM-binding motif) (from UniProt Q14667-1)
  binding: no binding
